In PubChem BioAssay AID1347076 (National Center for Advancing Translational Sciences (NCATS), 2019):
About 13,000 (3.2%) of roughly 400,000 compounds were called active. The inconclusive results got no clear call from the source; some entries with a clear call stand among them for comparison. The call rests on the fitted dose curve; in most records, active means well fitted cell-killing curve with a large enough effect; inconclusive means small, poorly fitted or top-dose-only effect, or effect the other way; inactive means flat fitted curve, though single readings scatter. A potency beside an inconclusive call is a rough fit, not a confirmed value.

Test: qHTS assay for MDR1-selective chemotherapeutics: Primary screen using the drug-selected MDR subline cells KB-V1; further: nearly all actives have a fitted effect of over 60% in size
Conditions: KB-V1 MDR cells viability, CellTiter-Glo, 72 h; activity change, negative = cytotoxicity: at 46.1 µM (top of the series)
How it was run: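 Following 72 h at 37 degrees C with compound, KB-V1 cell viability was read by CellTiter-Glo luminescence, medium being phenol-red-free DMEM plus 10% FBS; concentration-response parameters came from normalized, curve-fitted qHTS data.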
On the % scale 0 is the no-effect control and ±100 the full control effect; potency means the concentration at half of the fitted maximal effect.

Q: With `O=C(Nc1cccc(C(F)(F)F)c1)c1cc[n+]([O-])cc1` as the compound, how does the Potency read?
A: The Potency was inconclusive: 29.1 µM [cytotoxic, single point].

Q: With `CC(C)Oc1cccc(C(=O)C2CCCN(C(=O)c3ccccn3)C2)c1` (centres undefined) as the compound, how does the “activity change, negative = cytotoxicity” value read?
A: Its value is inactive: -6.87%.

Q: For `Cn1cc2ccc(-c3ccc4ncnc(NCc5cccs5)c4c3)cc2n1`, which “activity change, negative = cytotoxicity” value is on record?
A: Its value is inactive: -16.1%.

Q: Which Potency does the source give for `CCc1ccccc1NCC(=O)Nc1ccc(Cl)c(C(F)(F)F)c1` here?
A: The Potency was active: 20.6 µM.

Q: Which Potency does the source give for `COCCCn1c(SCc2ccccc2)nc2cc(OC)c(OC)cc2c1=N` here?
A: The Potency was inconclusive: 0.461 µM [cytotoxic, full curve, poor fit].

Q: For `COc1ccc(NC(=O)c2sc(=O)n(Cc3ccccc3C#N)c2C)cc1OC`, which Potency is on record?
A: The Potency was active: 5.8 µM.

Q: With `Cc1onc(-c2c(F)cccc2Cl)c1C(=O)Nc1cc(S(=O)(=O)N2CCCCC2)ccc1O` as the compound, how does the Potency read?
A: The Potency was active: 23.1 µM.

Q: For `COc1ccc(CN2C(=O)c3ccccc3C2C(=O)NC2CCC(C)CC2)c(OC)c1` (centres undefined), which Potency is on record?
A: Its Potency is inconclusive: 3.66 µM [cytotoxic, full curve].

Q: Which “activity change, negative = cytotoxicity” value does the source give for `CC(C)CCNC(=O)[C@@H](c1ccccc1)N1Cc2ccccc2C1=O` here?
A: The value was inactive: -6.41%.

Q: With `C=CCC[C@H](Cc1ccc(F)cc1)C(=O)OC[C@H](C)NC(=O)[C@H](CC=C)CC(=O)N(CCO)Cc1ccccc1` as the compound, how does the Potency read?
A: Its Potency is inconclusive: 16.4 µM [cytotoxic, partial curve, poor fit].

Q: Which “activity change, negative = cytotoxicity” value does the source give for `CCOC(=O)C1=C(CS(=O)(=O)c2ccc(F)cc2)NC(=O)NC1c1ccc(OCC)c(OC)c1` (centres undefined) here?
A: The value was inactive: 0%.

Q: Which “activity change, negative = cytotoxicity” value does the source give for `CC(C)Oc1ccc(S(=O)(=O)N2CCCCC2)cc1NC(=O)C1=NN(c2ccccc2)C(=O)CC1` here?
A: Its value is inactive: -25.5%.

Q: Which “activity change, negative = cytotoxicity” value does the source give for `Cc1ccn(CCC(=O)N2CCCC(N3CCN(c4ccccc4C)CC3)C2)n1` (centres undefined) here?
A: The value was inactive: -16.7%.

Q: For `CCCc1cc(=O)n2[nH]c(NCc3ccccc3OC)nc2n1`, which Potency is on record?
A: The Potency was inconclusive: 29.1 µM [rising, single point].

Q: Which Potency does the source give for `Cc1cc(-c2nnc(SCC(=O)Nc3ccc(C(F)(F)F)cc3)n2C)no1` here?
A: Its Potency is inconclusive: 14.6 µM [cytotoxic, partial curve].

Q: Which Potency does the source give for `Cn1c(=O)c2c(n(C)c1=O)=NC1(CCCCC1)ON=2` here?
A: The Potency was inconclusive: 9.2 µM [rising, partial curve, poor fit].

Q: Which Potency does the source give for `C[C@@H]1CN([C@H](C)CO)C(=O)c2cc(NC(=O)Cc3ccccc3)ccc2O[C@H]1CN(C)Cc1ccc(Oc2ccccc2)cc1` here?
A: Its Potency is inconclusive: 23.1 µM [cytotoxic, partial curve].

Q: With `COc1ccc(-c2cc(=O)oc3cc(OC(C)C(=O)NCC4CCC(C(=O)O)CC4)ccc23)cc1` (centres undefined) as the compound, how does the Potency read?
A: The Potency was inconclusive: 0.206 µM [rising, full curve, poor fit].

Q: With `O=C(COC(=O)c1cc(Cl)nc(Cl)c1)NCc1ccc2c(c1)OCO2` as the compound, how does the “activity change, negative = cytotoxicity” value read?
A: Its value is inactive: 17%.

Q: With `Cc1ccc(S(=O)(=O)N(C)c2ccc(OCc3cccc(C)c3)cc2)cc1` as the compound, how does the “activity change, negative = cytotoxicity” value read?
A: Its value is inactive: -15.5%.

Q: Which Potency does the source give for `CCOC(=O)c1c(C)c(C(=O)NC(C)COC)c(C)n1C` (centres undefined) here?
A: Its Potency is inconclusive: 29.1 µM [cytotoxic, single point].

Q: For `Cc1c(C)n(Cc2ccccc2)c2ccc(C(=O)NCc3ccco3)cc12`, which Potency is on record?
A: The Potency was inconclusive: 29.1 µM [cytotoxic, single point].

Q: Which Potency does the source give for `COc1ncnc2c1ncn2CCCN1CCN(c2ccccn2)CC1` here?
A: The Potency was inconclusive: 23.1 µM [cytotoxic, single point].

Q: Which Potency does the source give for `Cc1ccc(/C=C2\SC(=S)N(CCCC(=O)Nc3ccccn3)C2=O)cc1` here?
A: The Potency was inconclusive: 29.1 µM [cytotoxic, single point].

Q: Which Potency does the source give for `Cc1cc2c(cc1C)C(c1cccc(F)c1)CC(=O)N2` (centres undefined) here?
A: Its Potency is inconclusive: 29.1 µM [cytotoxic, single point].

Q: With `COc1cc(NC(=O)c2ccccc2NS(=O)(=O)c2ccc(Cl)s2)cc(OC)c1` as the compound, how does the Potency read?
A: Its Potency is active: 10.3 µM.

Q: For `COc1ccc(CNC(=O)c2ccc[nH]2)cc1`, which “activity change, negative = cytotoxicity” value is on record?
A: Its value is inactive: -4.25%.

Q: With `Cc1c(C(=O)Nc2nonc2-c2ccc(F)cc2)oc2ccc(F)cc12` as the compound, how does the Potency read?
A: Its Potency is inconclusive: 23.1 µM [cytotoxic, single point].

Q: With `O=C(Nc1ccccc1)/C(=C/c1ccc2c(c1)OCO2)NC(=O)c1ccco1` as the compound, how does the Potency read?
A: Its Potency is inconclusive: 7.31 µM [cytotoxic, partial curve].

Q: With `O=C(NCC1CCCO1)C1CC(c2ccc(Cl)c(Cl)c2)=NO1` (centres undefined) as the compound, how does the “activity change, negative = cytotoxicity” value read?
A: Its value is inactive: -26.1%.

Q: Which Potency does the source give for `O=C(CSc1nc2ccccc2c(=O)n1-c1ccccc1Cl)NC1CCS(=O)(=O)C1` (centres undefined) here?
A: Its Potency is inconclusive: 29.1 µM [rising, single point].

Q: Which Potency does the source give for `CC[C@@H](C(=O)[C@@H](C)[C@@H](O)[C@H](C)[C@@H]1O[C@@H]([C@@H](CC)C(=O)O)CC[C@@H]1C)[C@H]1O[C@]2(C=C[C@@H](O)[C@]3(CC[C@@](C)([C@H]4CC[C@](O)(CC)[C@H](C)O4)O3)O2)[C@H](C)C[C@@H]1C` here?
A: Its Potency is inconclusive: 6.51 µM [cytotoxic, partial curve].

Q: Which “activity change, negative = cytotoxicity” value does the source give for `O=C(NCc1ccccc1Cl)c1ccc2c(O)c(S(=O)(=O)c3ccccc3)c(=O)[nH]c2c1` here?
A: Its value is inactive: -4.77%.

Q: With `CN(CCCC(=O)Nc1ccc(OC(F)F)cc1)S(=O)(=O)c1ccc(F)cc1` as the compound, how does the Potency read?
A: The Potency was inconclusive: 11.6 µM [cytotoxic, partial curve].

Q: With `Cc1ccc(S(=O)(=O)NCCC(=O)Nc2cccc(Cl)c2)cc1` as the compound, how does the Potency read?
A: The Potency was active: 16.4 µM.

Q: For `O=C(NCc1ccccc1)c1ccc(S(=O)(=O)N2CCCC2)cc1`, which Potency is on record?
A: The Potency was inconclusive: 18.4 µM [cytotoxic, single point].

Q: For `COc1ccc(OC)c(-c2nc(C(=O)NCCCN3CCOCC3)cc3c2[nH]c2ccccc23)c1`, which Potency is on record?
A: Its Potency is inconclusive: 29.1 µM [cytotoxic, single point].

Q: Which “activity change, negative = cytotoxicity” value does the source give for `Cc1cc(C)cc(NC(=S)N2CCN(CCO)CC2)c1` here?
A: The value was inactive: -10.9%.

Q: Which “activity change, negative = cytotoxicity” value does the source give for `COc1cc(C(=O)Nc2ccn(C)n2)ccc1OC(F)F` here?
A: Its value is inactive: -5.52%.

Q: For `O=C(NCCc1ccccc1)C(=O)NCC1CCCN1S(=O)(=O)c1cccs1` (centres undefined), which Potency is on record?
A: The Potency was inconclusive: 20.6 µM [cytotoxic, partial curve].

Q: Which Potency does the source give for `O=c1[nH]cnc2scc(-c3ccc(Br)cc3)c12` here?
A: Its Potency is inconclusive: 0.58 µM [cytotoxic, full curve, poor fit].

Q: With `Cc1ccc(/C=N/N=C2/NC(=O)C(CC(=O)Nc3ccccc3)S2)o1` (centres undefined) as the compound, how does the “activity change, negative = cytotoxicity” value read?
A: Its value is inactive: -1.75%.

Q: With `Cc1cccc(Cc2c(C)nc3nc(SCc4ccccc4C)nn3c2C)c1` as the compound, how does the “activity change, negative = cytotoxicity” value read?
A: The value was inactive: 0%.

Q: With `c1ccc2nc(NN=C3CCCCC3)ccc2c1` as the compound, how does the Potency read?
A: The Potency was inconclusive: 20.6 µM [cytotoxic, single point].

Q: For `COc1cccc(-n2c(SCc3ccccc3C)nc3c([nH]c4ccccc43)c2=O)c1`, which Potency is on record?
A: The Potency was active: 23.1 µM.

Q: With `CCOC(=O)c1[nH]c2ccccc2c1NC(=O)CC(C)C` as the compound, how does the activity change, negative = cytotoxicity read?
A: Its activity change, negative = cytotoxicity is inconclusive: 62.8%.

Q: Which “activity change, negative = cytotoxicity” value does the source give for `CC(C)(C)c1cc(=O)n2c(C#N)c(C#N)nc2[nH]1` here?
A: The value was inactive: 23.3%.

Q: For `CCN(CC)C(=O)[C@H]1CC(CC(=O)NC/C=C(\C)CCC=C(C)C)C(=O)N2CCc3c([nH]c4ccc(OC)cc34)[C@]12C` (some centres undefined), which Potency is on record?
A: The Potency was inconclusive: 29.1 µM [cytotoxic, single point].

Q: Which “activity change, negative = cytotoxicity” value does the source give for `CCOc1ccc(Cl)cc1S(=O)(=O)N1CCC(C(=O)NCc2ccco2)CC1` here?
A: The value was inactive: -8.54%.

Q: With `O=C(CSC(=S)N1CCCC1)N(Cc1nnc(-c2ccccc2Cl)o1)C1CC1` as the compound, how does the Potency read?
A: The Potency was active: 4.61 µM.

Q: With `CCOC(=O)COc1cc(N2C(=O)CSCC2=O)c(Cl)cc1Cl` as the compound, how does the “activity change, negative = cytotoxicity” value read?
A: The value was inactive: 12.9%.

Q: Which Potency does the source give for `CCCC(=O)NC(c1ccc(OC)cc1)c1ccc2cccnc2c1O` (centres undefined) here?
A: The Potency was active: 7.31 µM.

Q: Which “activity change, negative = cytotoxicity” value does the source give for `O=c1c2ccccc2oc2cc(C#CC3(O)CCCCC3)ccc12` here?
A: The value was inactive: -1.31%.

Q: With `CN(C)S(=O)(=O)c1ccc2c(c1)nnn2CCNC(=O)Nc1ccc(Br)cc1` as the compound, how does the “activity change, negative = cytotoxicity” value read?
A: Its value is inactive: 4.93%.

Q: Which Potency does the source give for `COc1nc(N(C)C)nc(N(OC)S(=O)(=O)c2ccccc2Cl)n1` here?
A: Its Potency is inconclusive: 7.31 µM [cytotoxic, partial curve].

Q: With `COC(=O)[C@@]12CCCN1[C@H](c1ccc(-c3ccc(Cl)c(Cl)c3)c(OC)c1)[C@H]1C(=O)N(C)C(=O)[C@H]12` as the compound, how does the Potency read?
A: Its Potency is inconclusive: 16.4 µM [cytotoxic, single point].

Q: For `COc1cccc(OCc2nc3ccccc3n2CCOc2ccccc2C)c1`, which Potency is on record?
A: Its Potency is inconclusive: 18.4 µM [cytotoxic, single point].

Q: Which “activity change, negative = cytotoxicity” value does the source give for `N#C/C=C/N1CCN(C(=O)c2ccco2)CC1` here?
A: Its value is inactive: 5.99%.

Q: Which Potency does the source give for `COc1ccc(-c2cc(=O)oc3cc(OCC(=O)N4CCOCC4)ccc23)cc1` here?
A: Its Potency is inconclusive: 16.4 µM [cytotoxic, partial curve, poor fit].

Q: Which Potency does the source give for `COc1ccc(C(CC(=O)c2ccc(C)cc2)Nc2ccc([N+](=O)[O-])cc2)cc1` (centres undefined) here?
A: Its Potency is inconclusive: 25.9 µM [cytotoxic, single point].

Q: Which Potency does the source give for `CC(C)NC(=O)OCc1c(COC(=O)NC(C)C)c([N+](=O)[O-])n2c1CCC2` here?
A: Its Potency is inconclusive: 8.2 µM [cytotoxic, partial curve].

Q: With `Cc1c(NC(=O)OCc2ccccc2)c(=O)n(-c2ccccc2)n1C` as the compound, how does the Potency read?
A: Its Potency is inconclusive: 29.1 µM [rising, single point].

Q: For `CC(OC(=O)/C=C/c1ccccc1)C(=O)Nc1ccc2c(c1)OCCO2` (centres undefined), which Potency is on record?
A: The Potency was inconclusive: 11.6 µM [rising, partial curve, poor fit].

Q: With `CCOC(=O)c1c(NC(=O)COC(=O)Cn2cnc3c2c(=O)n(C)c(=O)n3C)sc(C)c1CC` as the compound, how does the activity change, negative = cytotoxicity read?
A: Its activity change, negative = cytotoxicity is inconclusive: -16.5%.

Q: Which Potency does the source give for `Cc1nc(C)c(-c2csc(NCc3ccco3)n2)s1` here?
A: The Potency was inconclusive: 11.6 µM [cytotoxic, partial curve].

Q: For `Cc1c2ccccc2nc2c(F)c(NC(C)C)c(F)c(F)c12`, which Potency is on record?
A: Its Potency is inconclusive: 29.1 µM [cytotoxic, single point].

Q: For `CCc1cc(C(=O)c2ccccc2OC)c(N)s1`, which Potency is on record?
A: Its Potency is inconclusive: 23.1 µM [cytotoxic, partial curve].

Q: For `O=[N+]([O-])c1ccc(N2CCN(S(=O)(=O)c3ccccc3)CC2)cc1`, which Potency is on record?
A: The Potency was active: 4.61 µM.

Q: Which Potency does the source give for `COc1cccc(/C=N/NC(=O)NC23CC4CC(CC(C4)C2)C3)c1O` here?
A: The Potency was inconclusive: 4.61 µM [cytotoxic, partial curve, poor fit].
